Some entries share one result that the patent states for a list of compounds. At least one compound was matched to its structure with a doubt left.
Test system: nematode eggs
Experiment: Gastro-intestinal larval development assay
Details: 10 ppm; 6 days at 25° C., 60% relative humidity

CS(=O)(=O)Nc1ccc(-c2cccnc2F)cc1C(=O)Nc1cc(C(F)(F)F)cc(C(F)(F)F)c1 [Compound 1.14, N-(3,5-bis (trifluoromethyl)phenyl)-5-(2-fluoropyridin-3-yl)-2-(methylsulfonamido) benzamide]
efficacy (percent reduced egg hatch, reduced development of L3, or paralysis & death of larvae): ≥ 60%

From patent publication US10047040B2, “Sulfonylaminobenzamide compounds as anthelmintics” (Elanco Tiergesundheit AG, priority 2014, dated 2018)
